Results deposited as PubChem BioAssay AID1259425 (University of Nebraska Medical Center, 2018)

- Aim: 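Seek colon cancer weak points whose silencing resembles KSR1 loss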 (primary screen)
- System: HCT116 human colon cancer cells
- Reagents: siRNA pool against human genes, 50 nM siRNA
- Read-out: 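mRNA of six signature genes measured together by branched-DNA assay after 50 nM siRNA pool, blank removed, divided by geometric mean of two housekeeping genes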
- Reading the numbers: BNIP3L mRNA: higher = more BNIP3L transcript after knockdown; NDRG1 mRNA: higher = more NDRG1 transcript after knockdown
Here is one part, drawn at random, of about 14,000 deposited reagents. Not all columns of the deposit are shown. Not given: the time to read-out.

For CEP192 (GeneID 55125) [SID364000756], how do the results read?
BNIP3L mRNA, set 1: 0.125; NDRG1 mRNA, set 1: 0.238

Which result is listed for IFNA1 (GeneID 3439) [SID364002677]?
BNIP3L mRNA, set 1: 0.154; NDRG1 mRNA, set 1: 0.299

What did the screen give for PTTG3P (GeneID 26255) [SID364001942]?
BNIP3L mRNA, set 1: 0.0534; NDRG1 mRNA, set 1: 0.0746

With MT1X (GeneID 4501) [SID363996814], what does the deposit list?
BNIP3L mRNA, set 1: 0.109; NDRG1 mRNA, set 1: 0.75

For CDKN2D (GeneID 1032) [SID363993019], what was measured?
BNIP3L mRNA, set 1: 0.259; NDRG1 mRNA, set 1: 0.598

For FAM13B (GeneID 51306) [SID364000227], how do the results read?
BNIP3L mRNA, set 1: 0.116; NDRG1 mRNA, set 1: 0.165

Quoted from above for reference:
IFNA1 (GeneID 3439) [SID364002677]: BNIP3L mRNA, set 1 = 0.154; NDRG1 mRNA, set 1 = 0.299
PTTG3P (GeneID 26255) [SID364001942]: BNIP3L mRNA, set 1 = 0.0534; NDRG1 mRNA, set 1 = 0.0746

The list goes on:
How did the screen score ZNF630 (GeneID 57232) [SID364005074]?
BNIP3L mRNA, set 1: 0.139; NDRG1 mRNA, set 1: 0.178

What is on record for KDM4D (GeneID 55693) [SID364000728]?
BNIP3L mRNA, set 1: 0.0701; NDRG1 mRNA, set 1: 0.281

For PPP2R5A (GeneID 5525) [SID363997067], how do the results read?
BNIP3L mRNA, set 1: 0.043; NDRG1 mRNA, set 1: 0.235

For GLS2 (GeneID 27165) [SID363998391], how do the results read?
BNIP3L mRNA, set 1: 0.114; NDRG1 mRNA, set 1: 0.128

Which result is listed for WDR33 (GeneID 55339) [SID364001026]?
BNIP3L mRNA, set 1: 0.0839; NDRG1 mRNA, set 1: 0.149

What did the screen give for AP1M1 (GeneID 8907) [SID364004009]?
BNIP3L mRNA, set 1: 0.206; NDRG1 mRNA, set 1: 0.52
